Measured values published in PMC6375917 (2019).
No constants are given. Whether binding was seen depends on the method and setting. Binding seen in cells or lysates may run through a third protein. Some binding calls cover weakened binding; strength is not graded here. Tags and fused reporters may be left off the sequences shown.

Biological target: T1, His-tagged Tim50 N283Y (yeast) (UniProt Q02776)
T1 sequence: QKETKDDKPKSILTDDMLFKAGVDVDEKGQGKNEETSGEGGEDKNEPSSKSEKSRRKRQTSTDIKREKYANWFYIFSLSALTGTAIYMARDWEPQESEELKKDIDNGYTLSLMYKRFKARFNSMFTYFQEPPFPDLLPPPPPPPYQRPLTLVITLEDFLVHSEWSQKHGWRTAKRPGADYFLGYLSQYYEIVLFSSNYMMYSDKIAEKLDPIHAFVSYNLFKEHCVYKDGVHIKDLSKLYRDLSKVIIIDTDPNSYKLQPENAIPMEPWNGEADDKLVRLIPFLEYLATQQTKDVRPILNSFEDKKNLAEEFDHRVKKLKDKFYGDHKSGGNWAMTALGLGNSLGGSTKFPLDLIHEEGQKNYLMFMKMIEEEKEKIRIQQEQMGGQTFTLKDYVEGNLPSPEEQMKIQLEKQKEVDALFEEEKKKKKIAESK
Test: pull-down; mitochondria from cells expressing His-tagged Tim50 versions solubilized with 1% digitonin, incubated with Ni-NTA agarose beads at 4 °C, eluted with Laemmli buffer with 300 mM imidazole; immunoblot with Tim50, Tim17 and Tim23 antibodies

B1: Tim23 (protein, UniProt P32897 1-222)
chain: MSWLFGDKTPTDDANAAVGGQDTTKPKELSLKQSLGFEPNINNIISGPGGMHVDTARLHPLAGLDKGVEYLDLEEEQLSSLEGSQGLIPSRGWTDDLCYGTGAVYLLGLGIGGFSGMMQGLQNIPPNSPGKLQLNTVLNHITKRGPFLGNNAGILALSYNIINSTIDALRGKHDTAGSIGAGALTGALFKSSKGLKPMGYSSAMVAAACAVWCSVKKRLLEK
B1 was tested, and the binding was “binds”.
